Reference: PubChem BioAssay AID504834 (National Center for Advancing Translational Sciences (NCATS), 2011)
In all, about 320,000 compounds went through this assay and about 22,000 (6.9%) were called active. The inconclusive results got no clear call from the source; some entries with a clear call stand among them for comparison. The call rests on the fitted dose curve; in most records, active means well fitted inhibition curve with a large enough effect; inconclusive means small, poorly fitted or top-dose-only effect, or another doubt; inactive means no such curve, though single readings can be large or run the other way. Potencies beside an inconclusive call are fits to weak or partial responses and may not hold up.

test: Primary qHTS for delayed death inhibitors of the malarial parasite plastid, 96 hour incubation; details: P. falciparum luciferase reporter growth; series mostly up to 28.7 µM
Method in brief: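 Infected RBCs, 2% Hct / 0.05% parasitemia final; luciferase-reporter P. falciparum; cpd 96 h, 37 C, 5% CO2; luciferase detection reagent; luminescence.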
Potency means the concentration at half of the fitted maximal effect.

| SMILES | Potency |
| --- | --- |
| COc1ccc(S(=O)(=O)N2CCC(O)(c3ccc(Cl)cc3)CC2)cc1OC | inactive |
| COc1ccc(CCNC(=O)[C@H](C)N2C(=O)N3CCc4c([nH]c5ccccc45)[C@@]3(C)C2=O)cc1OC | inactive |
| O=C(CNS(=O)(=O)c1ccc(Br)s1)Nc1ccc2c(c1)OCCO2 | active: 13.1 µM |
| CCCN(Cc1nnc(-c2ccccc2Cl)o1)C(=O)c1cc([N+](=O)[O-])cc([N+](=O)[O-])c1 | inconclusive: 5.86 µM [inhibitor, partial curve, poor fit] |
| CC(=O)Nc1ccc(NC(=O)CN(c2cccc(C(C)=O)c2)S(C)(=O)=O)cc1 | inactive |
| COC(=O)c1ccc(COc2ccc(-c3nn[nH]n3)cc2)cc1 | inactive |
| C/C(=N\OCC(=O)NC12CC3CC(CC(C3)C1)C2)c1cc2ccccc2o1 | inconclusive: 18.5 µM [inhibitor, single point] |
| CCc1ccc(C(=O)OCC(=O)NC2CCCC2)cc1 | inactive |
| COCCNC(=S)N/N=C(\C)c1cccc(C(F)(F)F)c1 | inconclusive: 4.15 µM [inhibitor, partial curve] |
| COc1ccc(Cl)cc1NS(=O)(=O)c1cccc(C(=O)NCC(C)(C)N2CCOCC2)c1 | inconclusive: 18.5 µM [inhibitor, single point] |
| O=C(COC(=O)/C=C/c1ccc(F)cc1)Nc1cccc(S(=O)(=O)N2CCCC2)c1 | inconclusive: 11.7 µM [inhibitor, single point] |
| O=C1N=C(N2C=CC(=C3C=CNC=C3)C=C2)/C(=C/N=NC(=O)c2ccccc2)S1 | inconclusive: 1.17 µM [inhibitor, partial curve] |
| CCOC(=O)c1ccc(NC(=S)N(CCCN2CCCC(C)C2)Cc2ccco2)cc1 (centres undefined) | inconclusive: 9.28 µM [inhibitor, single point] |
| CCCS(=O)(=O)N1CCN(C(=O)c2cccs2)CC1 | inconclusive: 20.8 µM [inhibitor, partial curve, poor fit] |
| COC(=O)c1ccccc1NC1c2ccccc2C(=O)N1c1cccnc1 (centres undefined) | inactive |
| COc1cc2[nH]c(=S)n(Cc3ccccc3)c(=O)c2cc1OC | inactive |
| CN(C(=O)COC(=O)c1ccc(CN2CCCC2=O)cc1)c1ccccc1 | inconclusive: 18.5 µM [inhibitor, single point] |
| COc1ccc(C(=O)N2CCCCC2)cc1S(=O)(=O)Nc1ccccc1 | inconclusive: 11.7 µM [inhibitor, single point] |
| Cc1cc(C(=O)COC(=O)CC2Sc3ccccc3NC2=O)c(C)n1-c1cccc(C(F)(F)F)c1 (centres undefined) | inactive |

Given as tab-separated lines: part of the list above.
SMILES	Potency
COc1cc2[nH]c(=S)n(Cc3ccccc3)c(=O)c2cc1OC	inactive
CN(C(=O)COC(=O)c1ccc(CN2CCCC2=O)cc1)c1ccccc1	inconclusive: 18.5 µM [inhibitor, single point]
